PubChem BioAssay AID720505 – Drosophila RNAi Screening Center | 2013

- Aim: 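Fly regulators or components of the CRAC channel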 (primary screen)
- Cell system: Drosophila S2R+ cells
- Knock-down reagent: long dsRNA against Drosophila genes
- Treatment: thapsigargin (2 µM) in calcium-free buffer to empty internal stores, then 2 mM calcium added back
- Read-out: 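Fluo-4 signal in 384-well plates read on a FLIPR after thapsigargin (2 µM, calcium-free) store depletion and 2 mM calcium add-back; unnormalised mean endpoint per well; screen run twice, selected wells retested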
- Scale: calcium signal and retest calcium signal: higher = more calcium entry after store depletion
- Rule for the call: 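About 1500 genes called as lowering calcium entry, by varying amounts, judged against per-plate control wells with STIM1 as positive and Rho1 as negative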
- Meaning of the calls: active = called as lowering calcium entry; inactive = not called
The screen tested about 20,000 reagents; below is an unselected part of those that have a named target and a result. In the full data, about 2,100 (10%) got an active call. 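Raw plate signals without normalisation; calls rest on control-based scores that were not deposited; replicate 2 separates called from uncalled poorly.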 Entries without a mark were called inactive. A plus sign joins genes that one reagent is predicted to hit. No sequences are given here. Not stated in the record: the amount of reagent, the time to read-out.

The opening 5 records, to show the layout:
gene | dsRNA | calcium signal, replicate 1 | calcium signal, replicate 2 | retest calcium signal, replicate 1 | retest calcium signal, replicate 2
ida (GeneID 45574) | DRSC08163 | 82.9 | 80.5 | – | –
CG14856 (GeneID 41790) | DRSC14980 | 128 | 181 | – | –
nompB (GeneID 35414) | DRSC03701 | 86.7 | 126 | – | –
nompB (GeneID 35414) | DRSC03731 | 76 (active) | 91.3 | 136 | 131
deltaCOP (GeneID 45250) | DRSC18760 | 67.6 (active) | 101 | – | –

The list itself, from the first entry:
gene | dsRNA | calcium signal, replicate 1 | calcium signal, replicate 2 | retest calcium signal, replicate 1 | retest calcium signal, replicate 2
ida (GeneID 45574) | DRSC08163 | 82.9 | 80.5 | – | –
CG14856 (GeneID 41790) | DRSC14980 | 128 | 181 | – | –
nompB (GeneID 35414) | DRSC03701 | 86.7 | 126 | – | –
nompB (GeneID 35414) | DRSC03731 | 76 (active) | 91.3 | 136 | 131
deltaCOP (GeneID 45250) | DRSC18760 | 67.6 (active) | 101 | – | –
Rfk (GeneID 40936) | DRSC15454 | 59.5 (active) | 121 | – | –
Blos1 (GeneID 246439) | DRSC05970 | 119 | 137 | – | –
Tsp39D (GeneID 35405) | DRSC03099 | 229 | 112 | – | –
CG4612 (GeneID 37914) | DRSC04478 | 152 | 91.4 | – | –
CG6607 (GeneID 42925) | DRSC16073 | 283 | 145 | – | –
CG9636 (GeneID 40967) | DRSC16529 | 106 | 85.8 | – | –
Zasp52 (GeneID 36740) | DRSC06269 | 148 | 124 | – | –
Zasp52 (GeneID 36740) | DRSC07121 | 114 | 130 | – | –
Ir94e (GeneID 42765) | DRSC15229 | 205 | 119 | 7742 | 139
Tsen34 (GeneID 2768977) | DRSC22932 | 131 | 197 | – | –
Mtl (GeneID 43319) | DRSC16751 | 126 | 118 | – | –
PRL-1 (GeneID 34952) | DRSC03393 | 87.1 | 84.4 | – | –
Zip89B (GeneID 41975) | DRSC16128 | 158 | 183 | – | –
CycT (GeneID 39961) | DRSC11124 | 130 | 122 | – | –
CycT (GeneID 39961) | DRSC23304 | 79.2 | 140 | – | –
Msp300 (GeneID 3771968) | DRSC00854 | 85.7 | 157 | – | –
Msp300 (GeneID 3771968) | DRSC00856 | 74.1 | 148 | – | –
Msp300 (GeneID 3771968) | DRSC00857 | 87.7 | 164 | – | –
Msp300 (GeneID 3771968) | DRSC00858 | 89.3 | 142 | – | –
Msp300 (GeneID 3771968) | DRSC02360 | 137 | 91.5 | – | –
Msp300 (GeneID 3771968) | DRSC03369 | 64.5 (active) | 208 | – | –
Msp300 (GeneID 3771968) | DRSC03370 | 182 | 83.1 | – | –
CG31937 (GeneID 326177) | DRSC00514 | 133 | 220 | – | –
CG7365 (GeneID 40200) | DRSC10824 | 99.3 | 117 | – | –
Gmd (GeneID 33716) | DRSC03119 | 72.9 | 175 | – | –
lush (GeneID 40136) | DRSC11364 | 97.8 | 106 | – | –
CG9825 (GeneID 37624) | DRSC04569 | 115 | 187 | – | –
Dlip3 (GeneID 53579) | DRSC07401 | 191 | 106 | – | –
CG3008 (GeneID 33693) | DRSC00560 | 139 | 85.1 | – | –
Nha2 (GeneID 42710) | DRSC14689 | 236 | 163 | – | –
Nha2 (GeneID 42710) | DRSC15619 | 174 | 263 | – | –
Nha2 (GeneID 42710) | DRSC15623 | 226 | 194 | – | –
Bdp1 (GeneID 34748) | DRSC03192 | 86.6 | 150 | – | –
mlt (retired record) (GeneID 44912) | DRSC06120 | 157 | 183 | – | –
wfs1 (GeneID 42679) | DRSC15676 | 137 | 134 | – | –
CG11131 (GeneID 40511) | DRSC11636 | 75.5 | 118 | – | –
CG11131 (GeneID 40511) | DRSC21736 | 94.8 | 122 | – | –
CG7065 (GeneID 31844) | DRSC18420 | 135 | 134 | – | –
CG30398 (GeneID 246591) | DRSC03891 | 79.8 | 4653 | – | –
CG13606 (GeneID 42873) | DRSC14609 | 226 | 169 | – | –
Snx16 (GeneID 37015) | DRSC06984 | 129 | 142 | – | –
CG9399 (GeneID 41157) | DRSC16488 | 170 | 127 | – | –
Fitm (GeneID 38596) | DRSC09772 | 122 | 90.9 | – | –
CG32376 (GeneID 318002) | DRSC22754 | 109 | 173 | – | –
AnxB9 (GeneID 42492) | DRSC14111 | 181 | 324 | – | –
CG30065 (GeneID 246431) | DRSC05420 | 74 | 108 | – | –
CG13558 (GeneID 37719) | DRSC04196 | 148 | 162 | – | –
par-6 (GeneID 32752) | DRSC20359 | 195 | 154 | – | –
CG11226 (GeneID 40501) | DRSC11639 | 72.1 | 105 | – | –
CG18764 (GeneID 59239) | DRSC15391 | 176 | 93.4 | – | –
conv (GeneID 36588) | DRSC07213 | 115 | 79.6 | – | –
CG34183 (GeneID 5740752) | DRSC01099 | 71.9 (active) | 145 | – | –
CG12009 (GeneID 38405) | DRSC08217 | 86.2 | 95.5 | – | –
hpRNA:CR18854 (GeneID 10178800) | DRSC02702 | 167 | 138 | – | –
alphaTub84B (GeneID 40848) | DRSC12622 | 115 (active) | 79.1 | – | –
shi (GeneID 45928) | DRSC20373 | 179 | 171 | – | –
Sirup (GeneID 34089) | DRSC03031 | 101 | 157 | – | –
att-ORFB + DPCoAC | DRSC15556 | 121 (active) | 147 | – | –
mRpL30 (GeneID 31398) | DRSC18416 | 258 | 115 | – | –
CG13405 (GeneID 38016) | DRSC08310 | 102 | 101 | – | –
CG11125 (GeneID 35669) | DRSC06042 | 142 | 129 | – | –
emei (GeneID 39250) | DRSC10897 | 131 | 98.1 | 5879 | 86.8
emei (GeneID 39250) | DRSC22684 | 43 (active) | 111 | – | –
spn-D (GeneID 318579) | DRSC22641 | 137 | 172 | – | –
otk2 (GeneID 36284) | DRSC07303 | 142 | 213 | – | –
DZIP1 (GeneID 42921) | DRSC14620 | 218 | 124 | – | –
dpr1 (GeneID 2768858) | DRSC05906 | 142 | 91.4 | – | –
dpr1 (GeneID 2768858) | DRSC06399 | 75.3 | 92.7 | – | –
Rh4 (GeneID 39887) | DRSC11268 | 118 | 186 | 114 | 93
CG17477 (GeneID 42067) | DRSC15239 | 209 | 205 | – | –
Caper (GeneID 33989) | DRSC02137 | 125 | 221 | – | –
CG8036 (GeneID 41027) | DRSC16366 | 156 | 182 | – | –
Ir31a (GeneID 318912) | DRSC22358 | 85.5 | 238 | – | –
CG12237 (GeneID 32967) | DRSC19449 | 122 | 112 | 65.4 | 90.4
CG12237 (GeneID 32967) | DRSC22256 | 121 | 136 | – | –
djl (GeneID 40839) | DRSC12578 | 114 | 185 | – | –
Reps (GeneID 34542) | DRSC02940 | 186 | 169 | – | –
Obp56b (GeneID 37265) | DRSC06551 | 180 | 145 | – | –
Pkd2 (GeneID 34651) | DRSC02962 | 117 | 153 | – | –
CG10947 (GeneID 35309) | DRSC02111 | 78.9 | 103 | – | –
CG31861 (GeneID 318988) | DRSC21665 | 181 | 129 | – | –
Ugt303B3 (GeneID 42774) | DRSC14199 | 249 | 178 | – | –
GXIVsPLA2 (GeneID 39734) | DRSC10243 | 165 | 119 | – | –
wb (GeneID 43946) | DRSC01375 | 76.5 | 75 | – | –
wb (GeneID 43946) | DRSC03634 | 75.9 (active) | 106 | – | –
wb (GeneID 43946) | DRSC23003 | 97.3 | 100 | – | –
CG8664 (GeneID 32719) | DRSC20116 | 71 (active) | 103 | – | –
Incenp (GeneID 35649) | DRSC06116 | 202 | 97.5 | – | –
Incenp (GeneID 35649) | DRSC21950 | 95.3 | 212 | – | –
sug (GeneID 36424) | DRSC06855 | 186 | 163 | – | –
PolI (GeneID 40965) | DRSC16267 | 119 | 125 | – | –
MTA1-like (GeneID 40693) | DRSC12382 | 158 | 167 | – | –
MTA1-like (GeneID 40693) | DRSC22022 | 72.4 | 152 | – | –
cta (GeneID 3355131) | DRSC03769 | 156 | 77.8 | – | –
KP78b + KP78a | DRSC23338 | 72.9 | 122 | – | –
KP78b + KP78a | DRSC23341 | 97 | 136 | – | –
sra (GeneID 47384) | DRSC17015 | 155 | 202 | – | –
Rim2 (GeneID 33350) | DRSC00073 | 95.3 | 165 | – | –
Rim2 (GeneID 33350) | DRSC00520 | 116 | 273 | – | –
Rim2 (GeneID 33350) | DRSC22699 | 102 | 153 | – | –
CG14321 (GeneID 42134) | DRSC14800 | 60.1 (active) | 84.7 | – | –
